Residue numbers refer to the chain shown, from its start. These are yes or no findings as the source states them, for the method shown. Some results given as binding are weak or reduced against the parent protein; the word gives no strength.
T1: human CD105 (R&D Systems Cat. No. 1097-EN) (human) (UniProt P17813)
T1 sequence (looked up): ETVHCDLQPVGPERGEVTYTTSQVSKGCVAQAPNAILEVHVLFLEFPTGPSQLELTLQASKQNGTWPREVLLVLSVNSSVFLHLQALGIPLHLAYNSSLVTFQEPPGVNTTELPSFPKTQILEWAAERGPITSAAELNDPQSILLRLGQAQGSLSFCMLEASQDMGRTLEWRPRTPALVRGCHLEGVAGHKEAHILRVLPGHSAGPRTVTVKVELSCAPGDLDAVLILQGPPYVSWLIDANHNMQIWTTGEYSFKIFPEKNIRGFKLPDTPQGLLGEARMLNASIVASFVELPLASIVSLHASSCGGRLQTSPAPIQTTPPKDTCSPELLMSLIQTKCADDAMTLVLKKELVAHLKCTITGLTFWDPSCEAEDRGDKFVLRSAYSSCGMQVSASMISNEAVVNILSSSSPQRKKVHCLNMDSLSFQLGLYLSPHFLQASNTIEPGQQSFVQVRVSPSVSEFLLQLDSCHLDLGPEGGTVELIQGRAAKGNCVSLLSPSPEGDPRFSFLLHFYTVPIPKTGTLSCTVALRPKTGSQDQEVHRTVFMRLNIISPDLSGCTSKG

B1: VK2AAVH1A2 (antibody, V domains shown)
VH: EVQLVESGGGLVKPGGSLRLSCAASGFTFSDAWMDWVRQAPGKGLEWVGEARSKASNHATYYAESVKGRFTISRDDSKNTLYLQMNSLKTEDTAVYYCTRWRRFFDSWGQGTLVTVSS
VL: DIQLTQSPSSLSASVGDRATITCRASSSVSYMHWYQQKPGKAPKPWAYATSNLASGVPSRFSGSGSGTDYTLTISSLQPEDFATYYCQQWSSNPLTFGGGTKVEIK
B2: VK2SSVH1A2 (antibody, V domains shown)
VH: B1 VH
VL: B1 VL with A19V, T22S, A47I, T50S
B3: VK2SAVH1A (antibody, V domains shown)
VH: B1 VH with G49A, A51I
VL: B1 VL with A19V, T22S
B4: VK2SAVH1A2 (antibody, V domains shown)
VH: B1 VH
VL: B1 VL with A19V, T22S

What follows are binders tested against T1, human CD105 (R&D Systems Cat. No. 1097-EN) (human) (assay: competition ELISA on human CD105 captured on the plate (100 ng/ml); competitor: biotinylated chimeric anti-CD105 at 6.25 ng/ml; streptavidin-HRP, TMB, OD450).

| binding | Binder |
| --- | --- |
| binds | B1 |
| binds | B2 |
| binds | B3 |
| binds | B4 |
